Assay results from patent publication EP1142587A1 (priority 1998, dated 2000).

The chains behind the UniProt entries cited, without tags or fusion partners.
UniProt P61169, whole entry: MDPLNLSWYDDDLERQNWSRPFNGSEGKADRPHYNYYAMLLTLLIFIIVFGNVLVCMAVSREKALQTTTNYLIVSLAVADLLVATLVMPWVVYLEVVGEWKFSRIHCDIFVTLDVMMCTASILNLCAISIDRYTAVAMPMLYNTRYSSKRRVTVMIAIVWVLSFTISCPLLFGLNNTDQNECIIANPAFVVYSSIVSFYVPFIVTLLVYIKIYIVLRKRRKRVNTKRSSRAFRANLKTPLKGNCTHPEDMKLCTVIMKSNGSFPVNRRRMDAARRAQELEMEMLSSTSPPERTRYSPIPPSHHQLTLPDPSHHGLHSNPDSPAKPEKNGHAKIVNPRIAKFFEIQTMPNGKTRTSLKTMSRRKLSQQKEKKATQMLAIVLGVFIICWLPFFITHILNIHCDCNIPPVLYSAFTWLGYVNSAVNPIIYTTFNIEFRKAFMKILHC

Target: T1, dopamine D2 receptor (Rattus norvegicus, UniProt P61169)
T1 construct: A membrane fraction obtained from rat corpus striatum was prepared as a membrane fraction of a dopamine D2 receptor; from tissue; host or cells: rat corpus striatum membrane fraction
Assay: biochemical
Assay type: binding

CN1CC[C@]23c4c5ccc(O)c4O[C@H]2[C@@H](O)C=C[C@H]3[C@H]1C5 [Morphine, reference compound]
Ki: > 1000 nM
